Laboratory results: PubChem BioAssay AID1508588 (Peter MacCallum Cancer Centre, 2020)

Assay: 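Knock-downs boosting vemurafenib effects on melanoma cell growth or lactate release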 (primary screen)
Cells: human WM266.4 melanoma cells (BRAF V600 mutant)
Reagents: siRNA pool against human genes, 40 nM
Duration: 96 h from transfection to read-out
Treatment: vemurafenib 300 nM (about IC25), added 48 h after transfection, for 48 h; comparison arm got DMSO vehicle only
Detection: 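Ratios to non-targeting siRNA for cell gain, counted as DAPI nuclei after minus before drug and averaged over two replicates, and for absorbance-read medium lactate per cell; both binned into fold-change classes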
Reading the numbers: cell gain with vemurafenib: higher = more cell gain than with non-targeting siRNA; lactate per cell with vemurafenib: higher = more lactate made per cell
Hit rule: 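a knock-down counts as enhancing when its fold-change classes with vehicle and with vemurafenib, taken together, show a stronger drug effect on cell gain or lactate per cell; exact class pairs not stated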
Calls: active = enhances vemurafenib effect; inactive = no enhancement seen
In all, the deposit lists about 18,000 reagents; this is a part drawn at random. Of all reagents, 790 (4.4%) were called active. 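Calls rest on a combination of fold-change classes in drug and vehicle arms, not all shown here.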 A number with no mark means an inactive call.

| Gene | cell gain with vemurafenib | lactate per cell with vemurafenib |
| --- | --- | --- |
| DYNC2LI1 (dynein cytoplasmic 2 light intermediate chain 1) | 0.27 | 1.31 |
| SYNPO2 (synaptopodin 2) | 0.73 | 1.52 |
| SEPTIN3 (septin 3) | 0.8 | 1.08 |
| PEF1 (penta-EF-hand domain containing 1) | 0.6 | 1.06 |
| FNBP4 (formin binding protein 4) | 0.61 | 0.81 |
| CIMAP1D (CIMAP1 family member D) | 0.52 | 0.94 |
| UGT3A2 (UDP glycosyltransferase family 3 member A2) | 0.03 | 2.75 |
| KCNMB3 | 0.38 | 1.23 |
| TAS1R2 (taste 1 receptor member 2) | 0.47 | 0.52 |
| LRRC18 (leucine rich repeat containing 18) | 0.26 | 1.29 |
| OXNAD1 (oxidoreductase NAD binding domain containing 1) | 1.35 | 0.94 |
| ARID1B (AT-rich interaction domain 1B) | 0.61 | 1 |
| FRS3 (fibroblast growth factor receptor substrate 3) | 0.91 | 0.78 |
| PRKAA1 (protein kinase AMP-activated catalytic subunit alpha 1) | 0.61 | 0.88 |
| SQLE (squalene epoxidase) | 1.05 | 0.64 |
| SEPTIN11 (septin 11) | 0.48 | 0.77 |
| TEAD3 (TEA domain transcription factor 3) | 0.84 | 0.96 |
| SELENOF (selenoprotein F) | 0.46 (active) | 0.46 |
| PSG5 (pregnancy specific beta-1-glycoprotein 5) | 0.6 | 1.34 |
| GSDMD (gasdermin D) | 1.1 | 0.62 |
| SCG2 (secretogranin II) | 0.75 | 0.8 |
| DNAJC13 (DnaJ heat shock protein family (Hsp40) member C13) | 1.03 | 1.04 |
| NEO1 (neogenin 1) | -0.01 | 2.97 |
| ITGA9 (integrin subunit alpha 9) | 1.11 | 0.68 |
| NDNF (neuron derived neurotrophic factor) | 0.54 | 1.34 |
| RRM1 (ribonucleotide reductase catalytic subunit M1) | -0.07 | 1.58 |
| ERMAP | 0.31 | 0.97 |
| MYLK2 (myosin light chain kinase 2) | -0.04 | 1.42 |
| CCDC181 (coiled-coil domain containing 181) | 1.06 | 0.68 |
| TBCC (tubulin folding cofactor C) | 0.96 | 0.77 |
| SEPSECS | 0.81 | 0.46 |
| UVRAG (UV radiation resistance associated) | 0.71 | 1.08 |
| ADCYAP1R1 (ADCYAP receptor type I) | 0.55 | 0.7 |
| LPCAT3 (lysophosphatidylcholine acyltransferase 3) | 0.31 | 2.02 |
| C4A (complement C4A (Chido/Rodgers blood group)) | 0.45 | 1.24 |
| ANXA9 (annexin A9) | -0.23 | 2.67 |
| SP100 (SP100 nuclear body protein) | -0.04 | 1.54 |
| NDUFB11 (NADH:ubiquinone oxidoreductase subunit B11) | 1.11 | 0.88 |
| RAB39A (RAB39A, member RAS oncogene family) | 0.43 | 0.82 |
| CHRNB3 (cholinergic receptor nicotinic beta 3 subunit) | 0.81 | 0.54 |
| CTSK (cathepsin K) | 0.16 | 1.57 |
| GLMP (glycosylated lysosomal membrane protein) | 0.32 | 2.62 |
| C1orf210 (chromosome 1 open reading frame 210) | 0.34 | 1.92 |
| SLC49A4 | 0.95 | 0.56 |
| KCNS2 | 0.5 | 1.4 |
| CRYBG3 (crystallin beta-gamma domain containing 3) | 0.29 | 0.51 |
| MATCAP1 (microtubule associated tyrosine carboxypeptidase 1) | 0.61 | 0.76 |
| SBSPON (somatomedin B and thrombospondin type 1 domain containing) | 0.38 | 1.21 |
| NEUROD2 (neuronal differentiation 2) | 0.58 (active) | 0.34 |
| POU2AF2 (POU class 2 homeobox associating factor 2) | 0.64 | 1.83 |
| HDGFL1 (HDGF like 1) | 0.79 | 0.99 |
| ONECUT3 (one cut homeobox 3) | 0.11 | 1.52 |
| PNN (pinin, desmosome associated protein) | 0.19 | 1.09 |
| DHX8 (DEAH-box helicase 8) | 0.43 | 0.82 |
| LAMB2 (laminin subunit beta 2) | 0.62 | 1.83 |
| RND3 (Rho family GTPase 3) | 0.4 | 2.23 |
| FBXO21 (F-box protein 21) | 0.16 | 0.81 |
| IL17RE (interleukin 17 receptor E) | 0.77 | 1.18 |
| MAPRE3 (microtubule associated protein RP/EB family member 3) | 0.68 | 0.64 |
| ASB2 (ankyrin repeat and SOCS box containing 2) | 0.13 | 2.15 |
| RPL21P44 (ribosomal protein L21 pseudogene 44) | 0.44 | 0.66 |
| ZNF341 (zinc finger protein 341) | 0.73 | 1.05 |
| ADAMTS3 (ADAM metallopeptidase with thrombospondin type 1 motif 3) | 0.39 | 0.84 |
| ATP13A4 (ATPase 13A4) | 0.42 | 2.44 |
| BEX4 (brain expressed X-linked 4) | 0.54 | 0.7 |
| VPS13D (vacuolar protein sorting 13 homolog D) | 0.82 | 0.52 |
| SPZ1 (spermatogenic leucine zipper 1) | 0.66 | 1.94 |
| ARPC5L (actin related protein 2/3 complex subunit 5 like) | 0.72 | 1.36 |
| FOXK2 (forkhead box K2) | 1.17 | 0.33 |
| DDX20 (DEAD-box helicase 20) | 0.58 | 0.52 |
| IL24 (interleukin 24) | 0.67 | 0.47 |
| PLS3 (plastin 3) | 0.49 | 1.21 |
| RGL3 (ral guanine nucleotide dissociation stimulator like 3) | 0.1 | 0.53 |
| C21orf58 (chromosome 21 open reading frame 58) | 0.26 | 2.48 |
| FLNA (filamin A) | 0.64 | 0.78 |
| DPEP1 (dipeptidase 1) | 0.67 | 0.55 |
| DEGS2 (delta 4-desaturase, sphingolipid 2) | 0.83 | 0.77 |
| ZFAT (zinc finger and AT-hook domain containing) | 0.71 | 0.7 |
| ERBB4 (erb-b2 receptor tyrosine kinase 4) | 0.68 | 0.6 |
| GNRHR (gonadotropin releasing hormone receptor) | 1.15 | 0.7 |
| MRPL16 (mitochondrial ribosomal protein L16) | 0.66 | 1.12 |
| STAT1 (signal transducer and activator of transcription 1) | 0.95 | 0.76 |
| WDR59 (WD repeat domain 59) | 0.59 | 1.43 |
| OR9A4 (olfactory receptor family 9 subfamily A member 4) | 0.34 | 1.26 |

Quoted from the entries so far for reference:
| Gene | cell gain with vemurafenib | lactate per cell with vemurafenib |
| --- | --- | --- |
| SYNPO2 (synaptopodin 2) | 0.73 | 1.52 |
| SEPTIN3 (septin 3) | 0.8 | 1.08 |
| PEF1 (penta-EF-hand domain containing 1) | 0.6 | 1.06 |
